Measured values from PMC7367184.
No constants are given. Whether binding was seen depends on the method and setting. For some of these results: Binding seen in cells or lysates may run through a third protein. Some binding calls cover weakened binding; strength is not graded here. For some of these results: Where a sequence is shown, tags or fusion partners need not be part of it. One block for each molecule: values may come before it.

Amino acid sequences for entries named in this document (tags omitted).
UniProt P50750: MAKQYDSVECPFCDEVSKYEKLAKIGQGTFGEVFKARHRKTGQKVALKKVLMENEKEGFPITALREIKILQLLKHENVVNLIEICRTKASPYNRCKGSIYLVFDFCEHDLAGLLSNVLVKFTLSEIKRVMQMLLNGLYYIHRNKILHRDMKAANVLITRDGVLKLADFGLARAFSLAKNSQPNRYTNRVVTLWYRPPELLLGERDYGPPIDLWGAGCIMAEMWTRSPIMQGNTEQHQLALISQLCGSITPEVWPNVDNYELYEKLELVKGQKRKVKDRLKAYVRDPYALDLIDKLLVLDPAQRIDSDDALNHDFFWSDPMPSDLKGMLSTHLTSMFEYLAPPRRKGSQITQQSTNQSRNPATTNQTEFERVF
UniProt O00472: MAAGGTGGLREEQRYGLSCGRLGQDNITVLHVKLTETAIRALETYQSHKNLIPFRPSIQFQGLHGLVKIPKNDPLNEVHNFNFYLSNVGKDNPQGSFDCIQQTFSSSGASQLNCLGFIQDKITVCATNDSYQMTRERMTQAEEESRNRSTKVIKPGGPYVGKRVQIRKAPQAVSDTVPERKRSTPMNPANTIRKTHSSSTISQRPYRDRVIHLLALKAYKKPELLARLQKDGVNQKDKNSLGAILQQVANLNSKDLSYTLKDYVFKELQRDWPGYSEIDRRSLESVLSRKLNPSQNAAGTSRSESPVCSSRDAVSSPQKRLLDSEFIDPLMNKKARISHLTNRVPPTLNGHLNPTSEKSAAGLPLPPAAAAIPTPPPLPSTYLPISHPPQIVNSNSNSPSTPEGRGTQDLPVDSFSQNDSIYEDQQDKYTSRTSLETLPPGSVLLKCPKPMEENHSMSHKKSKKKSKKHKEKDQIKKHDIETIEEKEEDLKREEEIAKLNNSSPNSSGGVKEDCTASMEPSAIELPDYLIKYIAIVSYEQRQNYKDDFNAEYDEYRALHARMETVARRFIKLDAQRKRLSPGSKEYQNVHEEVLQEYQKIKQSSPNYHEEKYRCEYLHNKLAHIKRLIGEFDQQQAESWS
UniProt P42568: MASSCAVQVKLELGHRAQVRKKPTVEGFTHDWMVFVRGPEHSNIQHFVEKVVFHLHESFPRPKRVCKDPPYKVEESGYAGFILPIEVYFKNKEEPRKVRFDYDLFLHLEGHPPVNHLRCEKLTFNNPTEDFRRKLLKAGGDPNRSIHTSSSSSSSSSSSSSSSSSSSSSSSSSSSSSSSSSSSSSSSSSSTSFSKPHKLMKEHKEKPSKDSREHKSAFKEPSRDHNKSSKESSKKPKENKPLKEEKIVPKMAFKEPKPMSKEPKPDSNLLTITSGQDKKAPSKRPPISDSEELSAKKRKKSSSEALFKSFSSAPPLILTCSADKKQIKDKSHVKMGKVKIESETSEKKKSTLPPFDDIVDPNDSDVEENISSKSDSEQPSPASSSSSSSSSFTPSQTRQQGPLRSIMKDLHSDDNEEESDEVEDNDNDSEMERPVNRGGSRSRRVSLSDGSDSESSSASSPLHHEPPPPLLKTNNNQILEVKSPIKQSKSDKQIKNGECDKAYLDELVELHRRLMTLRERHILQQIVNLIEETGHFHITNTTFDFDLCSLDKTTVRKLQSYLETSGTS

How the values were obtained:
[1] = molecular target: T1, Flag-tagged Siah1 C75S (catalytically inactive mutant) (UniProt Q8IUQ4); assay: co-IP; anti-Flag agarose IP of whole cell extracts of co-transfected 293T cells, 48 h after transfection; washes with buffer D with 0.3 M KCl, then 0.1 M KCl; Western blot; rising amounts of HA-HCF1 or HA-HCF2 in Figures 4A and 4B
T1 sequence: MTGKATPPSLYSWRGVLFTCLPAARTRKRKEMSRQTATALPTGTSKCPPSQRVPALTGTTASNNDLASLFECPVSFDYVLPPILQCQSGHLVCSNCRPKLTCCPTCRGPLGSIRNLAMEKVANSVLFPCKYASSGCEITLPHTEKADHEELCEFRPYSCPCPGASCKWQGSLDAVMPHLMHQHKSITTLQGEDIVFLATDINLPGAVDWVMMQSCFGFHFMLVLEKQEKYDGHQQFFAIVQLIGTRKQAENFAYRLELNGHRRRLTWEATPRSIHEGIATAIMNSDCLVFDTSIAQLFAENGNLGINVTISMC

[2] = molecular target: CDK9 (endogenous) (human (endogenous; cell line of Figure 2E not named)) (UniProt P50750); assay: co-IP; IP of nuclear extracts with anti-CDK9 polyclonal antibodies or rabbit total IgG; cells expressing a scrambled sequence, shHCF1 or shHCF2; Western blot
[3] = molecular target: T1, Flag-tagged Siah1 C75S (catalytically inactive mutant); assay: pull-down; in vitro competition: purified HA-HCF1/2 and GST-ELL2 on immobilized F-Siah1C75S (Supplemental Figure S2; methods not shown); both purified
[4] = molecular target: T2, HA-HCF2 (host cell factor 2) (UniProt Q9Y5Z7); assay: co-IP; anti-HA agarose IP of whole cell extracts of 293T cells transfected with F-Siah1 proteins and HA-HCF1 or HA-HCF2; washes with buffer D with 0.3 M KCl, then 0.1 M KCl; Western blot
T2 sequence: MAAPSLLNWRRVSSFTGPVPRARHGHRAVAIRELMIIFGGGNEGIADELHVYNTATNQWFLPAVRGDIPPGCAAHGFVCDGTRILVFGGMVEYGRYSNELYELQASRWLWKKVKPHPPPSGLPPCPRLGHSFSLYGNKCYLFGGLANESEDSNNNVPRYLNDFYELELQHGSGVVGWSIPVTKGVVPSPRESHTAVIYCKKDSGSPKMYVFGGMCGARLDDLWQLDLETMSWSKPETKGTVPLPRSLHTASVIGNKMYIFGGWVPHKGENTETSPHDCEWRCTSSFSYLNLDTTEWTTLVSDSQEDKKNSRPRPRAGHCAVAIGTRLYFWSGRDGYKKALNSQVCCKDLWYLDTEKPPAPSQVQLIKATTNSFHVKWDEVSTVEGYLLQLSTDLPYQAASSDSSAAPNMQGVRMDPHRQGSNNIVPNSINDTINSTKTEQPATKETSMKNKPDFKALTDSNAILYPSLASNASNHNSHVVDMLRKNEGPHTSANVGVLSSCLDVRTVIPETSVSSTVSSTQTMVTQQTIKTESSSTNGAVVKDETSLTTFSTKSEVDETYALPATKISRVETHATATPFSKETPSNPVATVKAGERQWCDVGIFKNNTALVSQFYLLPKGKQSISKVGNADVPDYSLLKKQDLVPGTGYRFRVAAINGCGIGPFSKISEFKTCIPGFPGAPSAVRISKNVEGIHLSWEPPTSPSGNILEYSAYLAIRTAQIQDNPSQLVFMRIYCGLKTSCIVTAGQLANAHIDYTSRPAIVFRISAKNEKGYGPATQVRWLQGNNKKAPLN

Molecule: ELL2 (co-expressed in 293T cells) (from UniProt O00472 1-640)
binding [1]: binds

Molecule: AF9 (endogenous) (from UniProt P42568 1-568)
binding [2]: binds

Molecule: ELL2 (endogenous) (from UniProt O00472 1-640)
binding [2]: binds

Molecule: GST-ELL2 (from UniProt O00472 1-640)
binding [3]: binds

B4: HA-HCF2 (host cell factor 2) (protein, UniProt Q9Y5Z7 1-792)
chain: T2 sequence
binding [3]: binds
binding [1]: binds

The next lines start with the values.

binding [2]: binds
B1: AFF1 (endogenous) (protein, UniProt P51825 1-1210)
chain: MAAQSSLYNDDRNLLRIREKERRNQEAHQEKEAFPEKIPLFGEPYKTAKGDELSSRIQNMLGNYEEVKEFLSTKSHTHRLDASENRLGKPKYPLIPDKGSSIPSSSFHTSVHHQSIHTPASGPLSVGNISHNPKMAQPRTEPMPSLHAKSCGPPDSQHLTQDRLGQEGFGSSHHKKGDRRADGDHCASVTDSAPERELSPLISLPSPVPPLSPIHSNQQTLPRTQGSSKVHGSSNNSKGYCPAKSPKDLAVKVHDKETPQDSLVAPAQPPSQTFPPPSLPSKSVAMQQKPTAYVRPMDGQDQAPSESPELKPLPEDYRQQTFEKTDLKVPAKAKLTKLKMPSQSVEQTYSNEVHCVEEILKEMTHSWPPPLTAIHTPSTAEPSKFPFPTKDSQHVSSVTQNQKQYDTSSKTHSNSQQGTSSMLEDDLQLSDSEDSDSEQTPEKPPSSSAPPSAPQSLPEPVASAHSSSAESESTSDSDSSSDSESESSSSDSEENEPLETPAPEPEPPTTNKWQLDNWLTKVSQPAAPPEGPRSTEPPRRHPESKGSSDSATSQEHSESKDPPPKSSSKAPRAPPEAPHPGKRSCQKSPAQQEPPQRQTVGTKQPKKPVKASARAGSRTSLQGEREPGLLPYGSRDQTSKDKPKVKTKGRPRAAASNEPKPAVPPSSEKKKHKSSLPAPSKALSGPEPAKDNVEDRTPEHFALVPLTESQGPPHSGSGSRTSGCRQAVVVQEDSRKDRLPLPLRDTKLLSPLRDTPPPQSLMVKITLDLLSRIPQPPGKGSRQRKAEDKQPPAGKKHSSEKRSSDSSSKLAKKRKGEAERDCDNKKIRLEKEIKSQSSSSSSSHKESSKTKPSRPSSQSSKKEMLPPPPVSSSSQKPAKPALKRSRREADTCGQDPPKSASSTKSNHKDSSIPKQRRVEGKGSRSSSEHKGSSGDTANPFPVPSLPNGNSKPGKPQVKFDKQQADLHMREAKKMKQKAELMTDRVGKAFKYLEAVLSFIECGIATESESQSSKSAYSVYSETVDLIKFIMSLKSFSDATAPTQEKIFAVLCMRCQSILNMAMFRCKKDIAIKYSRTLNKHFESSSKVAQAPSPCIASTGTPSPLSPMPSPASSVGSQSSAGSVGSSGVAATISTPVTIQNMTSSYVTITSHVLTAFDLWEQAEALTRKNKEFFARLSTNVCTLALNSSLVDLVHYTRQGFQQLQELTKTP

binding [4]: binds
binding [1]: binds
B2: Flag-tagged Siah1 C75S (catalytically inactive mutant) (enzyme, UniProt Q8IUQ4-2 1-313)
chain: T1 sequence

binding [2]: binds
B3: AFF4 (endogenous) (protein, UniProt Q9UHB7 1-1163)
chain: MNREDRNVLRMKERERRNQEIQQGEDAFPPSSPLFAEPYKVTSKEDKLSSRIQSMLGNYDEMKDFIGDRSIPKLVAIPKPTVPPSADEKSNPNFFEQRHGGSHQSSKWTPVGPAPSTSQSQKRSSGLQSGHSSQRTSAGSSSGTNSSGQRHDRESYNNSGSSSRKKGQHGSEHSKSRSSSPGKPQAVSSLNSSHSRSHGNDHHSKEHQRSKSPRDPDANWDSPSRVPFSSGQHSTQSFPPSLMSKSNSMLQKPTAYVRPMDGQESMEPKLSSEHYSSQSHGNSMTELKPSSKAHLTKLKIPSQPLDASASGDVSCVDEILKEMTHSWPPPLTAIHTPCKTEPSKFPFPTKESQQSNFGTGEQKRYNPSKTSNGHQSKSMLKDDLKLSSSEDSDGEQDCDKTMPRSTPGSNSEPSHHNSEGADNSRDDSSSHSGSESSSGSDSESESSSSDSEANEPSQSASPEPEPPPTNKWQLDNWLNKVNPHKVSPASSVDSNIPSSQGYKKEGREQGTGNSYTDTSGPKETSSATPGRDSKTIQKGSESGRGRQKSPAQSDSTTQRRTVGKKQPKKAEKAAAEEPRGGLKIESETPVDLASSMPSSRHKAATKGSRKPNIKKESKSSPRPTAEKKKYKSTSKSSQKSREIIETDTSSSDSDESESLPPSSQTPKYPESNRTPVKPSSVEEEDSFFRQRMFSPMEEKELLSPLSEPDDRYPLIVKIDLNLLTRIPGKPYKETEPPKGEKKNVPEKHTREAQKQASEKVSNKGKRKHKNEDDNRASESKKPKTEDKNSAGHKPSSNRESSKQSAAKEKDLLPSPAGPVPSKDPKTEHGSRKRTISQSSSLKSSSNSNKETSGSSKNSSSTSKQKKTEGKTSSSSKEVKEKAPSSSSNCPPSAPTLDSSKPRRTKLVFDDRNYSADHYLQEAKKLKHNADALSDRFEKAVYYLDAVVSFIECGNALEKNAQESKSPFPMYSETVDLIKYTMKLKNYLAPDATAADKRLTVLCLRCESLLYLRLFKLKKENALKYSKTLTEHLKNSYNNSQAPSPGLGSKAVGMPSPVSPKLSPGNSGNYSSGASSASASGSSVTIPQKIHQMAASYVQVTSNFLYATEIWDQAEQLSKEQKEFFAELDKVMGPLIFNASIMTDLVRYTRQGLHWLRQDAKLIS
